In US20260079169A1, “VOLATILE ORGANIC COMPOUNDS AS MARKERS FOR CELLULAR COMMUNICATION” (Technion Research and Development Foundation Limited, priority 2020, published 2026):

How the values were obtained:
[1] = test system: A549, H1299, H1975 human lung cancer lines and BEAS-2B normal cell line, each cultured alone; test: VOCs headspace analysis (ITEX GC-MS) of mono-culture groups (Format-1), bulk cell samples 1×10^4 cells; format: cell-based; conditions: bulk 1 × 10^4 cell
[2] = test system: different-cell pairs of BEAS-2B, A549, H1299, H1975 without physical contact under a mutual headspace; test: VOCs headspace analysis (ITEX GC-MS) of different-cell pair co-culture headspace groups (Format-3), bulk cell samples; format: cell-based, human; conditions: bulk 1 × 10^4 cell

SMILES: CCCCCCCCCC [VOC14]
- VOC level in headspace, area under curve (AUC) normalized by STD AUC ([1]; A (BEAS-2B) mono-culture): 0
- VOC level in headspace, area under curve (AUC) normalized by STD AUC ([1]; B (A549) mono-culture): 0
- VOC level in headspace, area under curve (AUC) normalized by STD AUC ([1]; C (H1299) mono-culture): 0
- VOC level in headspace, area under curve (AUC) normalized by STD AUC ([1]; D (H1975) mono-culture): 0
- VOC level in headspace, area under curve (AUC) normalized by STD AUC ([2]; A + B (BEAS-2B + A549)): 7.483
- VOC level in headspace, area under curve (AUC) normalized by STD AUC ([2]; A + C (BEAS-2B + H1299)): 0
- VOC level in headspace, area under curve (AUC) normalized by STD AUC ([2]; A + D (BEAS-2B + H1975)): 0
- VOC level in headspace, area under curve (AUC) normalized by STD AUC ([2]; B + C (A549 + H1299)): 0
- VOC level in headspace, area under curve (AUC) normalized by STD AUC ([2]; B + D (A549 + H1975)): 0
- VOC level in headspace, area under curve (AUC) normalized by STD AUC ([2]; C + D (H1299 + H1975)): 0

SMILES: CCCCCCCCCCC [VOC15]
- VOC level in headspace, area under curve (AUC) normalized by STD AUC ([1]; A (BEAS-2B) mono-culture): 0
- VOC level in headspace, area under curve (AUC) normalized by STD AUC ([1]; B (A549) mono-culture): 1.529
- VOC level in headspace, area under curve (AUC) normalized by STD AUC ([1]; C (H1299) mono-culture): 0
- VOC level in headspace, area under curve (AUC) normalized by STD AUC ([1]; D (H1975) mono-culture): 0
- VOC level in headspace, area under curve (AUC) normalized by STD AUC ([2]; A + B (BEAS-2B + A549)): 4.086
- VOC level in headspace, area under curve (AUC) normalized by STD AUC ([2]; A + C (BEAS-2B + H1299)): 0
- VOC level in headspace, area under curve (AUC) normalized by STD AUC ([2]; A + D (BEAS-2B + H1975)): 0
- VOC level in headspace, area under curve (AUC) normalized by STD AUC ([2]; B + C (A549 + H1299)): 0
- VOC level in headspace, area under curve (AUC) normalized by STD AUC ([2]; B + D (A549 + H1975)): 0
- VOC level in headspace, area under curve (AUC) normalized by STD AUC ([2]; C + D (H1299 + H1975)): 0

SMILES: CC(=O)c1ccccc1 [VOC16]
- VOC level in headspace, area under curve (AUC) normalized by STD AUC ([1]; A (BEAS-2B) mono-culture): 0
- VOC level in headspace, area under curve (AUC) normalized by STD AUC ([1]; B (A549) mono-culture): 0
- VOC level in headspace, area under curve (AUC) normalized by STD AUC ([1]; C (H1299) mono-culture): 0
- VOC level in headspace, area under curve (AUC) normalized by STD AUC ([1]; D (H1975) mono-culture): 6.624
- VOC level in headspace, area under curve (AUC) normalized by STD AUC ([2]; A + B (BEAS-2B + A549)): 7.573
- VOC level in headspace, area under curve (AUC) normalized by STD AUC ([2]; A + C (BEAS-2B + H1299)): 7.246
- VOC level in headspace, area under curve (AUC) normalized by STD AUC ([2]; A + D (BEAS-2B + H1975)): 8.052
- VOC level in headspace, area under curve (AUC) normalized by STD AUC ([2]; B + C (A549 + H1299)): 5.827
- VOC level in headspace, area under curve (AUC) normalized by STD AUC ([2]; B + D (A549 + H1975)): 0
- VOC level in headspace, area under curve (AUC) normalized by STD AUC ([2]; C + D (H1299 + H1975)): 0

SMILES: O=C1CCCCC1 [VOC17]
- VOC level in headspace, area under curve (AUC) normalized by STD AUC ([1]; A (BEAS-2B) mono-culture): 0
- VOC level in headspace, area under curve (AUC) normalized by STD AUC ([1]; B (A549) mono-culture): 0
- VOC level in headspace, area under curve (AUC) normalized by STD AUC ([1]; C (H1299) mono-culture): 0
- VOC level in headspace, area under curve (AUC) normalized by STD AUC ([1]; D (H1975) mono-culture): 8.236
- VOC level in headspace, area under curve (AUC) normalized by STD AUC ([2]; A + B (BEAS-2B + A549)): 7.734
- VOC level in headspace, area under curve (AUC) normalized by STD AUC ([2]; A + C (BEAS-2B + H1299)): 0
- VOC level in headspace, area under curve (AUC) normalized by STD AUC ([2]; A + D (BEAS-2B + H1975)): 0
- VOC level in headspace, area under curve (AUC) normalized by STD AUC ([2]; B + C (A549 + H1299)): 8.975
- VOC level in headspace, area under curve (AUC) normalized by STD AUC ([2]; B + D (A549 + H1975)): 6.287
- VOC level in headspace, area under curve (AUC) normalized by STD AUC ([2]; C + D (H1299 + H1975)): 0

SMILES: CCCCCCCCCCCCCCCC(=O)OCCCC [VOC19]
- VOC level in headspace, area under curve (AUC) normalized by STD AUC ([1]; A (BEAS-2B) mono-culture): 0
- VOC level in headspace, area under curve (AUC) normalized by STD AUC ([1]; B (A549) mono-culture): 0
- VOC level in headspace, area under curve (AUC) normalized by STD AUC ([1]; C (H1299) mono-culture): 0
- VOC level in headspace, area under curve (AUC) normalized by STD AUC ([1]; D (H1975) mono-culture): 0
- VOC level in headspace, area under curve (AUC) normalized by STD AUC ([2]; A + B (BEAS-2B + A549)): 0
- VOC level in headspace, area under curve (AUC) normalized by STD AUC ([2]; A + C (BEAS-2B + H1299)): 0
- VOC level in headspace, area under curve (AUC) normalized by STD AUC ([2]; A + D (BEAS-2B + H1975)): 0
- VOC level in headspace, area under curve (AUC) normalized by STD AUC ([2]; B + C (A549 + H1299)): 0
- VOC level in headspace, area under curve (AUC) normalized by STD AUC ([2]; B + D (A549 + H1975)): 0
- VOC level in headspace, area under curve (AUC) normalized by STD AUC ([2]; C + D (H1299 + H1975)): 0

SMILES: CCCCC(CC)CO (stereo not shown) [VOC20]
- VOC level in headspace, area under curve (AUC) normalized by STD AUC ([1]; A (BEAS-2B) mono-culture): 1.669
- VOC level in headspace, area under curve (AUC) normalized by STD AUC ([1]; B (A549) mono-culture): 2.134
- VOC level in headspace, area under curve (AUC) normalized by STD AUC ([1]; C (H1299) mono-culture): 0
- VOC level in headspace, area under curve (AUC) normalized by STD AUC ([1]; D (H1975) mono-culture): 7.035
- VOC level in headspace, area under curve (AUC) normalized by STD AUC ([2]; A + B (BEAS-2B + A549)): 3.741
- VOC level in headspace, area under curve (AUC) normalized by STD AUC ([2]; A + C (BEAS-2B + H1299)): 0
- VOC level in headspace, area under curve (AUC) normalized by STD AUC ([2]; A + D (BEAS-2B + H1975)): 0
- VOC level in headspace, area under curve (AUC) normalized by STD AUC ([2]; B + C (A549 + H1299)): 0
- VOC level in headspace, area under curve (AUC) normalized by STD AUC ([2]; B + D (A549 + H1975)): 0
- VOC level in headspace, area under curve (AUC) normalized by STD AUC ([2]; C + D (H1299 + H1975)): 0

SMILES: CC(C)(C)c1ccc(O)c(C(C)(C)C)c1 [VOC21]
- VOC level in headspace, area under curve (AUC) normalized by STD AUC ([1]; A (BEAS-2B) mono-culture): 4.821
- VOC level in headspace, area under curve (AUC) normalized by STD AUC ([1]; B (A549) mono-culture): 0
- VOC level in headspace, area under curve (AUC) normalized by STD AUC ([1]; C (H1299) mono-culture): 0
- VOC level in headspace, area under curve (AUC) normalized by STD AUC ([1]; D (H1975) mono-culture): 7.283
- VOC level in headspace, area under curve (AUC) normalized by STD AUC ([2]; A + B (BEAS-2B + A549)): 0
- VOC level in headspace, area under curve (AUC) normalized by STD AUC ([2]; A + C (BEAS-2B + H1299)): 0
- VOC level in headspace, area under curve (AUC) normalized by STD AUC ([2]; A + D (BEAS-2B + H1975)): 0
- VOC level in headspace, area under curve (AUC) normalized by STD AUC ([2]; B + C (A549 + H1299)): 0
- VOC level in headspace, area under curve (AUC) normalized by STD AUC ([2]; B + D (A549 + H1975)): 0
- VOC level in headspace, area under curve (AUC) normalized by STD AUC ([2]; C + D (H1299 + H1975)): 0
